PubChem BioAssay AID686938 | Drosophila RNAi Screening Center, 2013
Test: 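Fly genes required for calcium entry once internal stores are emptied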 (primary screen). Cell system: Drosophila S2R+ cells. Reagent: long dsRNA against Drosophila genes, about 0.25 µg dsRNA per well, roughly 10,000 cells. Time to read-out: 5 days of knock-down before the calcium assay. Challenge: thapsigargin (SERCA pump blocker) to empty calcium stores; entry signal taken 4 min after adding it. Read-out: 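Per-well fluo-4 fluorescence in two replicates, unnormalised, measured in resting cells and 4 min after store depletion by the SERCA blocker thapsigargin; ratio of the two present in few wells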. Scale: calcium entry signal: higher = stronger calcium signal after store depletion; entry to resting ratio: higher = more calcium entry relative to resting level; resting calcium signal: higher = higher resting calcium signal. Rule for the call: 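Hit if the duplicate-averaged plate z-score for entry over resting signal is under −3; wells with weak total dye signal (Fmax z < −2) or more than 5 off-targets removed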. Meaning of the calls: active = strongly reduced calcium entry; inactive = no strong reduction.
In all, the deposit lists about 23,000 reagents; this is a random part of those that have a named target and a result. Of all reagents, 75 (0.33%) are marked active. 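Raw plate signals without normalisation; calls rest on plate z-scores that were not deposited; ratio present for only 364 wells.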 Entries without a mark were called inactive. Not given: the dose of the treatment.

The first 3 records, to show the layout:
Gene	amplicon	calcium entry signal, replicate 1 (fluorescence units)	calcium entry signal, replicate 2 (fluorescence units)	entry to resting ratio	resting calcium signal, replicate 1 (fluorescence units)	resting calcium signal, replicate 2 (fluorescence units)
ImpE3	DRSC16716	4.60e7	2.88e7		2.22e7	1.44e7
gw	DRSC17135	3.64e7	3.88e7		1.77e7	1.68e7
gw	DRSC17160	3.14e7	4.02e7	2	1.59e7	1.92e7

Results, from the first entry:
Gene	amplicon	calcium entry signal, replicate 1 (fluorescence units)	calcium entry signal, replicate 2 (fluorescence units)	entry to resting ratio	resting calcium signal, replicate 1 (fluorescence units)	resting calcium signal, replicate 2 (fluorescence units)
ImpE3	DRSC16716	4.60e7	2.88e7		2.22e7	1.44e7
gw	DRSC17135	3.64e7	3.88e7		1.77e7	1.68e7
gw	DRSC17160	3.14e7	4.02e7	2	1.59e7	1.92e7
CG10417	DRSC04846	3.20e7			1.75e7	
Smu1	DRSC15803	4.56e7	2.40e7		1.96e7	1.12e7
pita	DRSC04006	1.90e7	3.46e7		1.06e7	1.43e7
pita	DRSC04435	4.30e7			2.12e7	
CG43069	DRSC05752	3.77e7	4.04e7		1.74e7	2.03e7
CG11356	DRSC19401	3.43e7	4.46e7		1.71e7	1.99e7
Df31	DRSC03738	3.93e7	3.62e7		1.95e7	1.66e7
Df31	DRSC22163	2.96e7	3.84e7		1.53e7	1.86e7
CG31206	DRSC13388	5.77e7	3.84e7		2.87e7	2.00e7
Cpr47Eb	DRSC06345	2.64e7	3.44e7		1.34e7	1.42e7
dikar	DRSC09699	4.29e7	3.22e7		2.70e7	1.36e7
dikar	DRSC22261	2.69e7	3.53e7		1.46e7	1.66e7
Tep3	DRSC03452	2.75e7	3.74e7		1.33e7	1.67e7
Prosbeta5R1	DRSC04581	2.14e7	2.34e7		1.11e7	1.09e7
CG4364	DRSC02742	2.63e7			1.51e7	
Pxt	DRSC17040	3.11e7	3.04e7		3.00e7	1.37e7
Mob4	DRSC04993	3.82e7			1.93e7	
Eglp3	DRSC04293	4.11e7	5.09e7		2.18e7	2.34e7
ND-ACP	DRSC08724	3.31e7	4.00e7		1.44e7	1.57e7
slif	DRSC11635	4.44e7	4.87e7		1.99e7	3.50e7
Afg3l2	DRSC10657	3.01e7	4.33e7		1.55e7	3.02e7
Acp53C14a	DRSC07224	3.96e7	4.68e7		1.70e7	2.48e7
CG32243	DRSC08105	3.71e7	4.08e7		1.67e7	1.75e7
Elp3	DRSC00448	2.62e7	2.20e7		1.33e7	1.12e7
mei-P22	DRSC11366	2.39e7	4.04e7		1.23e7	1.87e7
Zmynd10	DRSC09826	3.27e7	4.21e7		1.63e7	1.91e7
CG15657	DRSC04248	3.56e7	4.01e7		1.95e7	1.77e7
Sans	DRSC06357	3.63e7	3.22e7		1.49e7	1.42e7
CG8679	DRSC03109	5.50e7	4.56e7		2.43e7	2.19e7
CG42699	DRSC18076	3.03e7	3.13e7		1.39e7	1.50e7
CG42699	DRSC18341	4.02e7	4.30e7		2.06e7	2.00e7
CG9512	DRSC20189	2.72e7	3.53e7		1.21e7	1.46e7
Jon25Bi	DRSC03434	3.95e7	3.39e7		1.86e7	1.69e7
CG5880	DRSC15906	4.19e7	4.86e7		1.98e7	2.17e7
CG13311	DRSC09982	3.45e7	5.15e7		1.58e7	2.15e7
CG3592	DRSC18315	3.49e7	6.19e7	2	1.74e7	2.48e7
VhaSFD	DRSC03471	6.39e7			4.65e7	
Ire1	DRSC15606	3.87e7	4.32e7		7.16e7	1.83e7
Mul1	DRSC08174	4.02e7	4.99e7		1.90e7	2.07e7
CG13138	DRSC02235	2.74e7	3.74e7		1.40e7	1.63e7
eIF1A	DRSC16937	1.53e7	1.55e7		1.12e7	9.84e6
ArfGAP3	DRSC11794	3.17e7	4.76e7		1.63e7	3.30e7
CG13675	DRSC08908	2.18e7	3.15e7		1.40e7	1.41e7
CG13675	DRSC10034	2.13e7	1.96e7		1.27e7	1.19e7
CG13675	DRSC23124	5.23e7	3.22e7		2.36e7	1.44e7
Ms	DRSC16041	4.22e7	2.70e7		1.83e7	1.30e7
cactin	DRSC20576	2.48e7	2.43e7		1.55e7	1.38e7
Pmvk	DRSC02032	4.46e7	4.68e7		2.19e7	2.04e7
Had1	DRSC20216	4.34e7	3.05e7		2.16e7	1.49e7
CG17168	DRSC20904	3.64e7	4.44e7		2.25e7	1.86e7
CG15594	DRSC12280	3.91e7	2.96e7		1.87e7	1.32e7
Exn	DRSC09673	2.52e7	3.61e7		1.31e7	2.67e7
Exn	DRSC10077	3.14e7	4.99e7		1.66e7	1.95e7
CG8079	DRSC07070	2.39e7	2.17e7		1.16e7	1.11e7
CG8079	DRSC07071	3.90e7	4.65e7		2.04e7	2.11e7
